Data as given in US20250242062A1 (VANDERBILT UNIVERSITY, published 2025).
No constants are given. Whether binding was seen depends on the method and setting. Some binding calls cover weakened binding; strength is not graded here.

T1: murine COX-2 (mCOX-2) enzyme (murine, UniProt Q05769 18-604)
T1 sequence (looked up): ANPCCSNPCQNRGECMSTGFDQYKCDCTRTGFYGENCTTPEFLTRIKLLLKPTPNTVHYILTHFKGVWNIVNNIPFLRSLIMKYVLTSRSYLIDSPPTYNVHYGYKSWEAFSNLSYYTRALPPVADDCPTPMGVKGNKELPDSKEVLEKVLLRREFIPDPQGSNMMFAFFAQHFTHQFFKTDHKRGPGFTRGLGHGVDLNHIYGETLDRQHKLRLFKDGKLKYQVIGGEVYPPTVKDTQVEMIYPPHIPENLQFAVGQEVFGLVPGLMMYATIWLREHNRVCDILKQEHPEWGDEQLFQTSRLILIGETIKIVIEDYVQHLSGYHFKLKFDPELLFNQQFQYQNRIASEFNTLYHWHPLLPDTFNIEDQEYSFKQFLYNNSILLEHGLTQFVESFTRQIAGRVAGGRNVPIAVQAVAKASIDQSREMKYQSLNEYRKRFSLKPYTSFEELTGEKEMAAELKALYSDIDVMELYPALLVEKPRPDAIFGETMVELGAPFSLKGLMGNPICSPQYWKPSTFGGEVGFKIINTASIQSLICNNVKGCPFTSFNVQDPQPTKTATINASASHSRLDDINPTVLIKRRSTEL


Experiments:
[1] = target: T1, murine COX-2 (mCOX-2) enzyme; assay: fluorescence microscopy of KLA-activated (COX-2-expressing) RAW264.7 cells with 200 nM A7-NIR664; non-activated cells without COX-2 were not labeled
[2] = target: T1, murine COX-2 (mCOX-2) enzyme; assay: summary statement in the abstract of Example 1
[3] = target: T1, murine COX-2 (mCOX-2) enzyme; assay: phage display selection and MST, as told in the discussion of Example 1

| binding [1] | binding [2] | binding [3] | Binder |
| --- | --- | --- | --- |
| binds | binds |  | A7-NIR664 nanobody conjugate (VHH, NIR664 fluorophore conjugated to the N-terminus end) VHH: QVQLQESGGGLVQPGGSLKLSCAASGSIFSINVMGWYRQAPGKQRELVATITSGGTTNYADSVKGRFTISRDNAKDTLYLQMNSLKPEDTAVYYCNAKDLGGSSWFSEFDYWGQGTQVTVGP |
|  |  | binds | A7 nanobody (VHH, Alpaca-derived VHH expressed in E. coli and purified by SEC; The stated molecular weight is 15.24 kDa; also called native A7 nanobody clone) VHH: QVQLQESGGGLVQPGGSLKLSCAASGSIFSINVMGWYRQAPGKQRELVATITSGGTTNYADSVKGRFTISRDNAKDTLYLQMNSLKPEDTAVYYCNAKDLGGSSWFSEFDYWGQGTQVTVGP |
